Reference: PubChem BioAssay AID493014 (National Center for Advancing Translational Sciences (NCATS), 2011)
Some of the results follow. Shown are side measurements of this screen, not its main read-out; they come without a call. Most of these compounds were active or inconclusive in the main read-out, so they are no random draw. The note in brackets gives the kind of curve behind each potency; many fits are weak.

Assay: qHTS Assay to Find Inhibitors of Chronic Active B-Cell Receptor Signaling
Conditions: ABC-DLBCL IkBa-CBG/CBR reporter, luminescence ratio (green luciferase fused to IkBa over red control in TMD8 lymphoma cells), 4 h
Summary of the method: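 Concentration-response series (up to 46 uM) were applied to TMD8 dual-reporter cells for 4 h at 37C with doxycycline. Green/red ratio, after filter-overlap correction, defined %Activity; red signal alone was normalised to basal cells and zero luminescence.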

[1] = measured here: CBR red luminescence, cell number
[2] = measured here: IkBa-CBG green luminescence

Structure (SMILES)	AC50 [1]	AC50 [2]
Clc1ccc(-c2nnc(-c3ccccc3)c(-c3c[nH]c4ccccc34)n2)cc1	11.2 µM [falling, partial curve, poor fit]	
COc1ccc(OC)c(N/C(N)=N/c2nc(C)cc(C)n2)c1	3.98 µM [falling, partial curve, poor fit]	
COc1ccc(OC)c(C2NC(=O)CCC2[N+](=O)[O-])c1 (stereo not drawn)	35.5 µM [rising, single point]	
CC(C)c1ccc(NC(=S)NNC(=O)C2CC2)cc1	3.55 µM [rising, partial curve, poor fit]	
CCN(CC(=O)NCc1cccs1)C(=O)COc1ccccc1C#N	29.1 µM [falling, single point]	
Cc1nc2ccccc2c(=O)n1CC(=O)N1CCOCC1	9.2 µM [rising, single point]	
O=C(O)COCC(=O)Nc1ccc2c(c1)oc1ccccc12	17.8 µM [falling, partial curve]	
O=C(O)c1ccc(NC(CSCc2ccc(F)cc2)C(=O)O)c([N+](=O)[O-])c1 (stereo not drawn)	18.4 µM [falling, partial curve, poor fit]	
Cc1ccc(CSC2=Nc3ccccc3C3=NC(CC(=O)NCc4ccco4)C(=O)N23)cc1 (stereo not drawn)	20.6 µM [falling, single point]	
Cc1cccc(/C=N\Nc2cn[nH]c(=O)c2Cl)c1	12.6 µM [rising, partial curve]	
CC(=O)n1nc(-c2ccc(C)cc2)nc1NCc1ccc(F)cc1	25.1 µM [rising, single point]	
Brc1ccc(-n2cnc(-c3ccccc3)c2)cc1	0.447 µM [rising, full curve, poor fit]	
CCOc1cc(C(=O)OCC(=O)Nc2ccc(SC(F)F)cc2)cc(OCC)c1OCC	3.26 µM [rising, single point]	
COc1cccc(/C=N/NC(=O)CSc2nnc(C)n2-c2ccccc2)c1O	3.55 µM [falling, partial curve]	
Cc1ccc(C(=O)O/N=C(\N)Cc2cccs2)c(Cl)c1	0.794 µM [rising, full curve, poor fit]	35.5 µM [falling, partial curve, poor fit]
Cc1ccc(NCN2C(=O)C(=O)c3ccccc32)nc1	29.1 µM [rising, partial curve, poor fit]	29.1 µM [falling, single point]
COc1ccc2[nH]c3c(c2c1)CCN1C(=O)C(CC(=O)NCC24CC5CC(CC(C5)C2)C4)C[C@H](C(=O)N2CCCCC2)[C@@]31C (stereo partly drawn)	23.1 µM [rising, partial curve, poor fit]	5.17 µM [falling, partial curve, poor fit]
COc1ccc(C(=O)Nc2cc(C)ccc2NC(=O)COc2ccccc2)cc1	16.4 µM [rising, partial curve]	
CCOC(=O)C1=NN(c2ccc(OC)cc2)C(c2ccccc2)CC1=O (stereo not drawn)	29.1 µM [falling, single point]	
COc1cc(C(=O)NCC(c2cccs2)N2CCc3ccccc32)cc(OC)c1OC (stereo not drawn)	29.1 µM [falling, single point]	32.6 µM [rising, partial curve, poor fit]
COc1cc2c(cc1OC)-c1cc(Nc3ccc(C)cc3)nc(=O)n1CC2		14.1 µM [falling, partial curve]

Structure (SMILES)	AC50 [1]	AC50 [2]
CC(C)(C)C(=O)OCc1nc(-c2ccc(F)cc2)cs1	3.98 µM [rising, full curve]	
CCNC(=S)NNC(=O)Nc1ccccc1	29.1 µM [rising, single point]	
CCOc1ncccc1C(=O)Nc1ncc(C)s1	31.6 µM [falling, single point]	
Cc1ccccc1N(C(=O)Cc1ccsc1)C(C(=O)NC1CCCCC1)c1ccc(F)cc1 (stereo not drawn)	28.2 µM [falling, single point]	
Nc1nc2c(F)cccc2s1	0.82 µM [rising, full curve, poor fit]	
Cc1cc(C(=O)COC(=O)CNS(=O)(=O)c2ccc3ccccc3c2)c(C)n1-c1ccccc1	23.1 µM [rising, single point]	
c1ccc(-c2cn3nc4c(nc3n2)CCCC4)cc1	6.51 µM [falling, partial curve]	
Cc1ccccc1OCC(=O)NNC(=S)NC(=O)c1ccccc1[N+](=O)[O-]	18.4 µM [falling, single point]	
O=C1/C(=C/c2cccs2)SC(=S)N1CCCC(=O)N(CCO)c1ccccc1	35.5 µM [falling, single point]	
CC(C)Cn1c(=O)c2c(nc3n2CC(C)CN3Cc2ccccc2)n(C)c1=O (stereo not drawn)	5.01 µM [falling, partial curve, poor fit]	
COc1ccc(C/C(C)=N/NC(=S)Nc2ccc(Cl)cc2)cc1	17.8 µM [rising, partial curve, poor fit]	
COC(=O)c1ccccc1NC(=O)CSc1nnc(C(C)NC(=O)c2ccc(Cl)cc2Cl)n1C (stereo not drawn)	0.058 µM [rising, full curve, poor fit]	
COc1ccc(CN2CCN(C(=O)c3ccco3)CC2)cc1OCc1ccccc1	8.91 µM [rising, partial curve]	
Nc1cccc(-c2nc3ccccc3s2)c1	2.31 µM [rising, partial curve, poor fit]	
O=C(CSc1nccc(-c2cccs2)n1)Nc1ccc(Cl)cc1	25.1 µM [rising, single point]	
CC(C)OCCCn1c(SCC(N)=O)nc2c(sc3ccccc32)c1=O	0.708 µM [falling, full curve, poor fit]	
O=C(Nc1ccccc1)Nc1cccc2cccnc12	13 µM [falling, partial curve]	
CC(C)(C)Nc1nc(Cl)nc(Nc2ccccc2)n1	11.2 µM [falling, partial curve, poor fit]	
CCSc1nnc(NC(=O)c2c(C)noc2C)s1	11.2 µM [falling, partial curve, poor fit]	
CCCC[C@@H]1CNCCN1CCc1cccc2ccccc12	29.1 µM [falling, single point]	
c1ccc(OCc2nc(-c3ccccc3)no2)cc1	29.1 µM [falling, partial curve, poor fit]	

Structure (SMILES)	AC50 [1]	AC50 [2]
COC(=O)c1ccccc1NC(=O)CCc1ccccc1	32.6 µM [falling, single point]	
O=C(Cc1ccc(Nc2nc3ccc(Br)cc3[nH]2)cc1)NCCc1cccs1	29.1 µM [falling, single point]	
CCOc1ccc(NC(=O)c2ccc(NCC(=O)N3CCCCCC3)cc2)cc1	7.08 µM [falling, partial curve]	
C/C(=N\NC(=O)c1ccccc1C)c1cccc([N+](=O)[O-])c1	16.4 µM [falling, partial curve, poor fit]	
O=C(Nc1ccc(Cl)c(Cl)c1)c1cc(S(=O)(=O)N2CCN(c3cccc(Cl)c3)CC2)ccc1F	2.51 µM [falling, partial curve, poor fit]	
CC(C)c1nnc(NC(=O)CCC(=O)N2CCN(C3c4ccccc4-c4ccccc43)CC2)s1	2.31 µM [rising, full curve]	
CN(C)c1cccc(C(=O)NNC(=S)NC2CC3CCC2C3)c1 (stereo not drawn)	8.91 µM [falling, partial curve]	
COc1ccccc1N1C(=O)C(Cl)=C(N2CCCC2)C1=O	35.5 µM [falling, single point]	
C/C(=N\NC(=O)c1n[nH]c2c1CCC2)c1ccco1	2.51 µM [falling, full curve]	35.5 µM [falling, single point]
COc1cccc2cc(C(=O)NCCc3c[nH]c4ccccc34)c(=O)oc12	14.1 µM [falling, partial curve, poor fit]	
CCOC(=O)c1cnc(-c2ccccc2)nc1N	8.2 µM [falling, partial curve, poor fit]	
Cc1cccc(-c2noc(CCc3ccccc3)n2)c1	1.41 µM [rising, partial curve, poor fit]	
CSc1ccc(C(=O)N2CCc3ccc(NC(=O)c4ccccn4)cc3C2)cc1	35.5 µM [falling, single point]	
O=C(CN1CCOCC1)Nc1nc2ccc(Cl)cc2s1	3.98 µM [falling, single point]	
COc1cc2c(cc1OC)CN(c1nc(-c3cccnc3)nc3ccccc13)CC2	35.5 µM [falling, partial curve, poor fit]	
O=C(c1ccc2ccccc2c1)C1CCCN(S(=O)(=O)c2cccnc2)C1 (stereo not drawn)	22.4 µM [falling, single point]	
Cc1ccc2cccc(OCC(=O)Nc3cccc(S(=O)(=O)N4CCCC4)c3)c2n1	18.4 µM [falling, single point]	
CCn1cc([N+](=O)[O-])c(C(=O)N2N=C(c3ccc(OC)cc3OC)CC2c2ccccc2O)n1 (stereo not drawn)	32.6 µM [falling, partial curve, poor fit]	
O=C(CSC1=NS(=O)(=O)c2ccccc21)Nc1ccccc1	0.0231 µM [falling, full curve, poor fit]	
CCN(CC)CC(O)COCCC12CC3CC(CC(C3)C1)C2 (stereo not drawn)	20.6 µM [falling, single point]	
Cc1ccccc1NC(=O)Cn1nnc2sc3c(c2c1=O)CC(C)(C)OC3	0.562 µM [rising, full curve, poor fit]	

Three compounds drawn at random from the list so far:
Structure (SMILES)	AC50 [1]	AC50 [2]
Cc1ccccc1OCC(=O)NNC(=S)NC(=O)c1ccccc1[N+](=O)[O-]	18.4 µM [falling, single point]	
Nc1nc2c(F)cccc2s1	0.82 µM [rising, full curve, poor fit]	
Cc1cc(C(=O)COC(=O)CNS(=O)(=O)c2ccc3ccccc3c2)c(C)n1-c1ccccc1	23.1 µM [rising, single point]	
